Experimental data from the supplement of paper PMC10849652.
This is one part of the list.

The chains behind the UniProt entries cited, without tags or fusion partners. Where a name states a change or a piece, a line headed by the entry shows the natural chain unless it says otherwise.
UniProt Q9UJA2: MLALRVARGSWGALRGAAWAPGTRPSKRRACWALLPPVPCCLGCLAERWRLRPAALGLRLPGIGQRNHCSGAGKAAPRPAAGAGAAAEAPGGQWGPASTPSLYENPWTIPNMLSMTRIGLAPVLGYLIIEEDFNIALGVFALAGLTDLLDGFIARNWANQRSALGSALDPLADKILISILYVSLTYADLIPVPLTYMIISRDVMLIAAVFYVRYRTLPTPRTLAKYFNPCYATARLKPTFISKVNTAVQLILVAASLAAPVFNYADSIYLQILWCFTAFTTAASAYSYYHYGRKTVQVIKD
UniProt Q9UNS2: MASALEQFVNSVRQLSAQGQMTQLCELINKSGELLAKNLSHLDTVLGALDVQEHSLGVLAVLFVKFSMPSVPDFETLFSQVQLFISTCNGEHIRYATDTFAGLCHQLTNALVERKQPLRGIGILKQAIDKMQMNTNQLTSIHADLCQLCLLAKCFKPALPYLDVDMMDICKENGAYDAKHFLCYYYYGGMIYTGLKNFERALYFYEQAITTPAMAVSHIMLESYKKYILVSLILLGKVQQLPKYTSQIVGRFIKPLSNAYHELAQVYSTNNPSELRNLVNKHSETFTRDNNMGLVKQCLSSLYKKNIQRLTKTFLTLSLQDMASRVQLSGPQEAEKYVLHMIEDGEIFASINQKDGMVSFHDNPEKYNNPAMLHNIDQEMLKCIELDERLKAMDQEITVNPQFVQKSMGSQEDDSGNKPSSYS
UniProt P12109: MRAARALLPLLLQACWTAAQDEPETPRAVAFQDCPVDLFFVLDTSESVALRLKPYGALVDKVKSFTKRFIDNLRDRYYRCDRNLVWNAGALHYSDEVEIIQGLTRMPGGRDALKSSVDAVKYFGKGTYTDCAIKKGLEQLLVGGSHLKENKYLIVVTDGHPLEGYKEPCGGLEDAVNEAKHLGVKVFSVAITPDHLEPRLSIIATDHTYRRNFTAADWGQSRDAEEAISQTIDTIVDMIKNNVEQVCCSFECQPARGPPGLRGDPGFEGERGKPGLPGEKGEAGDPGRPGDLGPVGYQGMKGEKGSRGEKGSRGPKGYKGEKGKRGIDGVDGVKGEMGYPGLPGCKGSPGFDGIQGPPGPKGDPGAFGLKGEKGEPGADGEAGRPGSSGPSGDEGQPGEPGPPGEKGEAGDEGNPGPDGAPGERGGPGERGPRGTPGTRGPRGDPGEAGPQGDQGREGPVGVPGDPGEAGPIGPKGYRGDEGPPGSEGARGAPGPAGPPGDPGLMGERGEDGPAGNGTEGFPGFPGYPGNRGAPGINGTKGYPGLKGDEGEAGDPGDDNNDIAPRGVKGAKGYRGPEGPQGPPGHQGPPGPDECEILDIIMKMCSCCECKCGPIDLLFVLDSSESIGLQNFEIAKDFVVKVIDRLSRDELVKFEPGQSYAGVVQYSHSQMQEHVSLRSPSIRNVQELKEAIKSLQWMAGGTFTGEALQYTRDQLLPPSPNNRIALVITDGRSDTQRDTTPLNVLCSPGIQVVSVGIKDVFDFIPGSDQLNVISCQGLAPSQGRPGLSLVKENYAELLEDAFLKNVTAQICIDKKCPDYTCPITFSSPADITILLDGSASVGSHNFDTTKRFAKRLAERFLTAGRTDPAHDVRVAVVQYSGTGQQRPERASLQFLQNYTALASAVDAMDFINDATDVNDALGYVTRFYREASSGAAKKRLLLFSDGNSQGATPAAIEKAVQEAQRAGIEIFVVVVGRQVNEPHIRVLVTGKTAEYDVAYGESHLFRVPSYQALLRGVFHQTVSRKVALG
UniProt Q8N684: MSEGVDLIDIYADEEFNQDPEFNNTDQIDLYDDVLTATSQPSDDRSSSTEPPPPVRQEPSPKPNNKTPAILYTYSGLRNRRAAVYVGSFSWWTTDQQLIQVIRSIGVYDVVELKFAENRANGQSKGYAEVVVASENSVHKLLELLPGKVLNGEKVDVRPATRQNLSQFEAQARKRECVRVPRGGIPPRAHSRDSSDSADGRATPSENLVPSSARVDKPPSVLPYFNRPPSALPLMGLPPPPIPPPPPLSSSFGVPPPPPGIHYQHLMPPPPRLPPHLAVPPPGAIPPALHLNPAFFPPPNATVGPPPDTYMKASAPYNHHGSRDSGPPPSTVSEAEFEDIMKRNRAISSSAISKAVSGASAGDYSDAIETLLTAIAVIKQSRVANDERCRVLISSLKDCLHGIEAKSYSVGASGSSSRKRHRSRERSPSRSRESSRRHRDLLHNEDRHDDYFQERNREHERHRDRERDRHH
UniProt Q10570: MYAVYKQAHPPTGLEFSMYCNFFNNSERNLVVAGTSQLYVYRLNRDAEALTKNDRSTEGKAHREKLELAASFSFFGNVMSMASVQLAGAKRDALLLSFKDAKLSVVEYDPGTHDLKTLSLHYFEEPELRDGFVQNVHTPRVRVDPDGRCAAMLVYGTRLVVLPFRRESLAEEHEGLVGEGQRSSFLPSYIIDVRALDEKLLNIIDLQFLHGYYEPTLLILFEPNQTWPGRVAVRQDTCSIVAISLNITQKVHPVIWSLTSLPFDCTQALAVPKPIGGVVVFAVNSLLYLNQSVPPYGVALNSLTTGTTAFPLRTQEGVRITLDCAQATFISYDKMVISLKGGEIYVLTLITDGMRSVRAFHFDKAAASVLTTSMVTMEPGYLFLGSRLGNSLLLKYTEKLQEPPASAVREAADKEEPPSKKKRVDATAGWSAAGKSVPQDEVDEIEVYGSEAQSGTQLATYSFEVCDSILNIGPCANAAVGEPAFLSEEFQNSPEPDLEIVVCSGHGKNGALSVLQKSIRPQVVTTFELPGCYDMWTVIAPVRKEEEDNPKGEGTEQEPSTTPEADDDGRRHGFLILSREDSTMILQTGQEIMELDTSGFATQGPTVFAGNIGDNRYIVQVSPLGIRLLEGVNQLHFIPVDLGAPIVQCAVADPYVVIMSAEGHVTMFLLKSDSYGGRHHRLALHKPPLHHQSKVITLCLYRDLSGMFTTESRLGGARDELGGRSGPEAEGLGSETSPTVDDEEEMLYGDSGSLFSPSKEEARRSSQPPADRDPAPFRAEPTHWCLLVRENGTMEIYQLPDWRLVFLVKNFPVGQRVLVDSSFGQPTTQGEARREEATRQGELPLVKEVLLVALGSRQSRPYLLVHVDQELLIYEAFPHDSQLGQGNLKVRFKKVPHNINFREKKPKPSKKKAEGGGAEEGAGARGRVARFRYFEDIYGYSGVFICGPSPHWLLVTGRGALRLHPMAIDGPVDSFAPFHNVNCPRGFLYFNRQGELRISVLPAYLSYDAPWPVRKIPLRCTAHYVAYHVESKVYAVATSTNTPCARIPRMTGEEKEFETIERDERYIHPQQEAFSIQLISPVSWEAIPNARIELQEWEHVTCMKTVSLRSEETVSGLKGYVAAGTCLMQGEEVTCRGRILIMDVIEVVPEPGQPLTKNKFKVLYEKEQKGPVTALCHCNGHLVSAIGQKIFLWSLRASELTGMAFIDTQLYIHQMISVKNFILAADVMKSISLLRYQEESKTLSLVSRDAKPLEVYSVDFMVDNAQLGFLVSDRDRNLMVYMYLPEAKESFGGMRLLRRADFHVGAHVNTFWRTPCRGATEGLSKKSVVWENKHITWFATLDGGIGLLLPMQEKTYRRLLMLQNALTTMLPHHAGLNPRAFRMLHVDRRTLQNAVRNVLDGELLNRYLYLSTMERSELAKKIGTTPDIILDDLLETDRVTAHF
UniProt O75976: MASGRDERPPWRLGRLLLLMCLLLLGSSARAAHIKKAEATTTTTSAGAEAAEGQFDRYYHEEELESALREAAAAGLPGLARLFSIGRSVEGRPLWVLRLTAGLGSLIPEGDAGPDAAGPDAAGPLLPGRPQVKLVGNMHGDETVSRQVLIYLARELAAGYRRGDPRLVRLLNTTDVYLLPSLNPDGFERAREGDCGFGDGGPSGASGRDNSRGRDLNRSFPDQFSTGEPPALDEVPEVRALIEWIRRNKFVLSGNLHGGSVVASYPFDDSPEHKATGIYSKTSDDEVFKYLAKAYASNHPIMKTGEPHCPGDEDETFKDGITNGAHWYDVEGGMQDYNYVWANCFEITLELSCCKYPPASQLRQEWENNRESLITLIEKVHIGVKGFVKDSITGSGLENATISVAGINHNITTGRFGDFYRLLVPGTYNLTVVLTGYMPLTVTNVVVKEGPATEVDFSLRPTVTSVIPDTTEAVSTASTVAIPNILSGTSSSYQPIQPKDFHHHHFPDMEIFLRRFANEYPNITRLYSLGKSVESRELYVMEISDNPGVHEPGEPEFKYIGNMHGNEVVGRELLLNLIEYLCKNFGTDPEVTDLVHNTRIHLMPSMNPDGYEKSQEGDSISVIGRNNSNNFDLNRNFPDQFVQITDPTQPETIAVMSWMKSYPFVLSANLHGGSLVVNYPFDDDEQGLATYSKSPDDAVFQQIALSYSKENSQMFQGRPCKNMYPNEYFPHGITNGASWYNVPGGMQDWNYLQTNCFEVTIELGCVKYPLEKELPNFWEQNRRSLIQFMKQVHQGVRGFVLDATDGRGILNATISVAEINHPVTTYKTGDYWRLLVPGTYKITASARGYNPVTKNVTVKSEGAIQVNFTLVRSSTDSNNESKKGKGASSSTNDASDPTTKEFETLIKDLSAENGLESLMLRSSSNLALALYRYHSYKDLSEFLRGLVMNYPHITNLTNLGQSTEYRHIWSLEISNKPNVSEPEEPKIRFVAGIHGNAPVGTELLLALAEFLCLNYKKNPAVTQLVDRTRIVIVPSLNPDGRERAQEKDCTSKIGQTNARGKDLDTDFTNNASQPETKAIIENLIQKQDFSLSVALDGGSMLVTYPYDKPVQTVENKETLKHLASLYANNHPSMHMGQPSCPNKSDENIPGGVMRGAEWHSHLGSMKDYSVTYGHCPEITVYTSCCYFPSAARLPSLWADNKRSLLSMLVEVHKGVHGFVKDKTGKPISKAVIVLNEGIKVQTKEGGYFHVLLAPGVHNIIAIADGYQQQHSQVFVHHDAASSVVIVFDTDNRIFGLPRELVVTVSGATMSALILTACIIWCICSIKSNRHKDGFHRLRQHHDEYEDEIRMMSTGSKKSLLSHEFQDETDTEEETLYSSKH
UniProt O75575: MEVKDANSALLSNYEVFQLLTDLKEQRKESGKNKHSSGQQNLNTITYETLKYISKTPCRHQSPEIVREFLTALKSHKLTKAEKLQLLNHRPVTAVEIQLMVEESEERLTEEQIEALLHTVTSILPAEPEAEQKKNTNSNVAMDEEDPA
UniProt P10606, whole entry, looked up: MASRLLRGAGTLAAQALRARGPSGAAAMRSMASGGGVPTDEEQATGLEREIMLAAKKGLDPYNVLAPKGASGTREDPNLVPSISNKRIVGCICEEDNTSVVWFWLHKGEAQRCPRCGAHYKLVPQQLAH
UniProt P67870, whole entry, looked up: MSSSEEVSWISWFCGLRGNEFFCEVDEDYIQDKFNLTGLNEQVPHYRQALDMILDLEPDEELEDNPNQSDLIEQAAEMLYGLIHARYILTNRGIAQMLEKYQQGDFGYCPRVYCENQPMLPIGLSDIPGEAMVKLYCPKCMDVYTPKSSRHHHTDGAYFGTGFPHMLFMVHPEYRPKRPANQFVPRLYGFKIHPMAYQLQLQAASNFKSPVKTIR
UniProt O75208: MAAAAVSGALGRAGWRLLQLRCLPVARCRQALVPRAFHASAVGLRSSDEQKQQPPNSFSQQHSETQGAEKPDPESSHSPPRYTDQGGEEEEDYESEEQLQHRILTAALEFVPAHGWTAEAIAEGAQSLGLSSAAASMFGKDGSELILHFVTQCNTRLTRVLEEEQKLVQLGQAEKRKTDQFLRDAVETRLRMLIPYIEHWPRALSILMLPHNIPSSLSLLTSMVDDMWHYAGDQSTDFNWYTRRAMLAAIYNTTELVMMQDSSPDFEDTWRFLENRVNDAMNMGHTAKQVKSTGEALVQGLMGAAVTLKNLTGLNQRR
UniProt P21964: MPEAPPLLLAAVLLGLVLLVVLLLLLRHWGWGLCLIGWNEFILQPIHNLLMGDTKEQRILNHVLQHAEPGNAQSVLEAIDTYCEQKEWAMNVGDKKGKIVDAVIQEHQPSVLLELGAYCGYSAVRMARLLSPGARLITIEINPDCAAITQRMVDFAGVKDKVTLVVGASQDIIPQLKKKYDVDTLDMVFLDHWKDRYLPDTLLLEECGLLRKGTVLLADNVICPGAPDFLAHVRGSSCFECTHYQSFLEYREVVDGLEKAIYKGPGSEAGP
UniProt Q8IUI8: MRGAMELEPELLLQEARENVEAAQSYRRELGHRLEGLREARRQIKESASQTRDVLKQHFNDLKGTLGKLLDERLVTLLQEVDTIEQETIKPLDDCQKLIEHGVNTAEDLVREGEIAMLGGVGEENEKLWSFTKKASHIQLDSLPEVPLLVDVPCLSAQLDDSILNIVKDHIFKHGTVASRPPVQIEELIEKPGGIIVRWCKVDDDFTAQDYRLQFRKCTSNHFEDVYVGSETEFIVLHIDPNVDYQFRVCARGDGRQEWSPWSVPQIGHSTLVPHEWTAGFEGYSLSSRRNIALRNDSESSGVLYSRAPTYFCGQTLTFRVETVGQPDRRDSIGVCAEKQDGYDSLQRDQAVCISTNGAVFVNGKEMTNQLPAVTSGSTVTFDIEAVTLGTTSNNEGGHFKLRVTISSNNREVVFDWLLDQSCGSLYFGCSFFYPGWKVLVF

Compound: CC[C@@H]1C(=O)N(C)c2cnc(Nc3ccc(C(=O)NC4CCN(C)CC4)cc3OC)nc2N1C1CCCC1
Assay: log2 fold change, soluble protein after heating vs DMSO (PISA); higher = thermal stabilisation; K562 cells, 10 uM, 30 min; active = over 0.2 and 3.5 SD of the protein, either way, in both replicates (recomputed)
Outline: (§1)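 Soluble protein was defined as the supernatant after 21,000xg for 90 min. It came from K562 cells at 2×10^6 cells/mL given 10 μM compound for 30 min, heated in aliquots for 3 min across 48°C-58°C, pooled, and extracted in PBS with 0.5% NP-40 at 4°C, and was quantified by TMTpro 16plex LC-MS/MS with equalised channel sums. Thermal stability against control samples, from duplicates, is reported as log2 fold change.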

Target | log2 fold change
CSNK2A2 (UniProt P19784) | inactive: -0.053
CPT1A (UniProt P50416) | inactive: -0.048
CPNE7 (UniProt Q9UBL6) | inactive: -0.119
COMMD1 (UniProt Q8N668) | inactive: -0.029
CS (UniProt O75390) | inactive: 0.04
CRLS1 (UniProt Q9UJA2) | inactive: 0.029
COPS3 (UniProt Q9UNS2) | inactive: 0.001
COPS3 isoform 2 (UniProt Q9UNS2) | inactive: 0.079
COL6A1 (UniProt P12109) | inactive: 0.097
CRYM-AS1 (UniProt A6NIL9) | inactive: -0.04
CRTC2 (UniProt Q53ET0) | inactive: 0.014
CPEB4 (UniProt Q17RY0) | inactive: 0.081
CSE1L (UniProt P55060) | active: -0.209
COL6A3 (UniProt P12111) | inactive: -0.281
CPSF7 isoform 3 (UniProt Q8N684) | inactive: 0.077

Compound: CC[C@@H]1C(=O)N(C)c2cnc(Nc3ccc(C(=O)N[C@H]4CC[C@H](N5CCN(CC6CC6)CC5)CC4)cc3OC)nc2N1C(C)C [volasertib]
Assay: as above
Outline: as §1

Target | log2 fold change
CPSF1 (UniProt Q10570) | inactive: -0.105
COPS4 (UniProt Q9BT78) | inactive: -0.007
COMMD2 (UniProt Q86X83) | inactive: -0.264
COMP (UniProt P49747) | inactive: -0.049
CPD (UniProt O75976) | inactive: -0.33
CRCP (UniProt O75575) | inactive: -0.142
COMMD3 (UniProt Q9UBI1) | inactive: -0.432
COX5A (UniProt P20674) | inactive: -0.08
COX5B (UniProt P10606) | inactive: -0.02
CSNK2B (UniProt P67870) | inactive: 0.009
CPT2 (UniProt P23786) | active: 0.912
CSNK2A1 (UniProt P68400) | inactive: 0.04
CRK (UniProt P46108) | inactive: -0.085
COQ9 (UniProt O75208) | inactive: -0.05
COX20 isoform 2 (UniProt Q5RI15) | inactive: 0.077
CORO2A (UniProt Q92828) | inactive: -0.075
COX6A1 (UniProt P12074) | inactive: 0.091

Target | log2 fold change
CSK (UniProt P41240) | active: -0.306
COMT (UniProt P21964) | inactive: 0.073
CRLF3 (UniProt Q8IUI8) | inactive: -0.277
CSNK2A2 (UniProt P19784) | inactive: -0.122
CPT1A (UniProt P50416) | inactive: -0.047
CPNE7 (UniProt Q9UBL6) | inactive: -0.057
COMMD1 (UniProt Q8N668) | inactive: -0.041
CS (UniProt O75390) | inactive: 0.158
CRLS1 (UniProt Q9UJA2) | inactive: 0.026
COPS3 (UniProt Q9UNS2) | inactive: -0.017
COPS3 isoform 2 (UniProt Q9UNS2) | inactive: 0.031
COL6A1 (UniProt P12109) | inactive: 0.021
CRTC2 (UniProt Q53ET0) | inactive: 0.016
CPEB4 (UniProt Q17RY0) | inactive: -0.092
CSE1L (UniProt P55060) | active: -0.403
COL6A3 (UniProt P12111) | inactive: 0.252
CPSF7 isoform 3 (UniProt Q8N684) | inactive: 0.039
